{
  "sequences": {"note": "Sequences of proteins named here, by UniProt entry; tags and fusion partners are left off. A change or cut given only in a name is not applied to a line headed by its entry.", "UniProt Q9Y5Y2": "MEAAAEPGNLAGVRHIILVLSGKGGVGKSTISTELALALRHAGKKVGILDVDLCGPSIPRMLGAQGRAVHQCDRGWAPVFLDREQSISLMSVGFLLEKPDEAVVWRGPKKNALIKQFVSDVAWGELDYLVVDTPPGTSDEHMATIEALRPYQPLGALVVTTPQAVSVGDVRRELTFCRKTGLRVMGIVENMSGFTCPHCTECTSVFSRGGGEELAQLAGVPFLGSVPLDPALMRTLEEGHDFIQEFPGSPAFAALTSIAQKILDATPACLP", "UniProt Q8N1F7": "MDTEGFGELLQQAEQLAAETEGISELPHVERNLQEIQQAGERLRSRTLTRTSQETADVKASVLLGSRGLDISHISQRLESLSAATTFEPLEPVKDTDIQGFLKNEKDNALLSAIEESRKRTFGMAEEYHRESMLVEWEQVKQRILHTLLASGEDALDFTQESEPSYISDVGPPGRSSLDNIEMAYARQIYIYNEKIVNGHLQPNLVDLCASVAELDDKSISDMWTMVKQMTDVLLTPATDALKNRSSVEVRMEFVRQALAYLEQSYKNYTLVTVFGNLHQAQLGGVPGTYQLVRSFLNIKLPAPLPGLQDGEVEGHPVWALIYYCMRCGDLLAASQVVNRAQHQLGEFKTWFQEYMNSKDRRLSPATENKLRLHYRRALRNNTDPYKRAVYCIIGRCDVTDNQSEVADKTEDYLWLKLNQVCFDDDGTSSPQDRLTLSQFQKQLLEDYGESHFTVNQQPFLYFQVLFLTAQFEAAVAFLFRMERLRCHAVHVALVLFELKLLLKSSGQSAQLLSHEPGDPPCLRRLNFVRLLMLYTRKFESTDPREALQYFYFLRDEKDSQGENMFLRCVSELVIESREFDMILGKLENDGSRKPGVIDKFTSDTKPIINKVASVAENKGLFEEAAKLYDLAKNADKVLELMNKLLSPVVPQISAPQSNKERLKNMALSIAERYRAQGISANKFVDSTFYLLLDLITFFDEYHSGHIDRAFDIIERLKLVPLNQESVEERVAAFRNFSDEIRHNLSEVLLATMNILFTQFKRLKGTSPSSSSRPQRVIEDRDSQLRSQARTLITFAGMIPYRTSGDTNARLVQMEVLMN", "UniProt Q5BJF6": "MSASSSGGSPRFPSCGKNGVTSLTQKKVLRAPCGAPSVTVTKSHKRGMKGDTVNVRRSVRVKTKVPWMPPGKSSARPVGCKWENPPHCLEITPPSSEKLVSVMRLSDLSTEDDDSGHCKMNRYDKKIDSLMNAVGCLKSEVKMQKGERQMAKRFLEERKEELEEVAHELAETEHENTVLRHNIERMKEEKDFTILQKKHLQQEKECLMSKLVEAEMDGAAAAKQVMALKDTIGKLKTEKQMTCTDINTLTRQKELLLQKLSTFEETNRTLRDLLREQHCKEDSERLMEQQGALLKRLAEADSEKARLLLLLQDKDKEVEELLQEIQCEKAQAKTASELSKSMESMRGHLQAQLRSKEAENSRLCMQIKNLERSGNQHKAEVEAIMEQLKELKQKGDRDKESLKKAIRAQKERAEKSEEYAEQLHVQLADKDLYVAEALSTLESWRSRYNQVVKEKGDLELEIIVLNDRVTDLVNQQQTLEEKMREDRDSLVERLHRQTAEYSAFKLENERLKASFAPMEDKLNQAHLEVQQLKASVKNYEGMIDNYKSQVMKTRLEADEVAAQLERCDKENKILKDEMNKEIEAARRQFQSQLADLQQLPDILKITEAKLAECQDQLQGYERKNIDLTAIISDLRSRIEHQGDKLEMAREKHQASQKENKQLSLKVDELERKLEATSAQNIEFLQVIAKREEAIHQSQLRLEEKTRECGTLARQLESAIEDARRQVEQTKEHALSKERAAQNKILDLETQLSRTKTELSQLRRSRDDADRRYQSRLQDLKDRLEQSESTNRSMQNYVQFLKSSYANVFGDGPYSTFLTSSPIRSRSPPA", "UniProt Q5TFE4": "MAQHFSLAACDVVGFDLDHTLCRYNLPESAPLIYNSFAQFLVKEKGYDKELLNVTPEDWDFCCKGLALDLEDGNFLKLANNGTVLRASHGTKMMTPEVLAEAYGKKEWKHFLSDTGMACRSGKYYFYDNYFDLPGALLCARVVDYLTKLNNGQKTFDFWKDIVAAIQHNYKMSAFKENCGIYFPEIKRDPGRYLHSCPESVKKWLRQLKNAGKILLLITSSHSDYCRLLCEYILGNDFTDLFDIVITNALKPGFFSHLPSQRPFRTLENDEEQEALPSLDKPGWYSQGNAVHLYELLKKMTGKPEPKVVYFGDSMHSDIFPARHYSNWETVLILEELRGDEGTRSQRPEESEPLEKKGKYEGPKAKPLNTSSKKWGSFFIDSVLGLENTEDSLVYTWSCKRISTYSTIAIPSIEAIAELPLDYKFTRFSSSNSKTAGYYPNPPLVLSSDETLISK", "UniProt P49790, whole entry, looked up": "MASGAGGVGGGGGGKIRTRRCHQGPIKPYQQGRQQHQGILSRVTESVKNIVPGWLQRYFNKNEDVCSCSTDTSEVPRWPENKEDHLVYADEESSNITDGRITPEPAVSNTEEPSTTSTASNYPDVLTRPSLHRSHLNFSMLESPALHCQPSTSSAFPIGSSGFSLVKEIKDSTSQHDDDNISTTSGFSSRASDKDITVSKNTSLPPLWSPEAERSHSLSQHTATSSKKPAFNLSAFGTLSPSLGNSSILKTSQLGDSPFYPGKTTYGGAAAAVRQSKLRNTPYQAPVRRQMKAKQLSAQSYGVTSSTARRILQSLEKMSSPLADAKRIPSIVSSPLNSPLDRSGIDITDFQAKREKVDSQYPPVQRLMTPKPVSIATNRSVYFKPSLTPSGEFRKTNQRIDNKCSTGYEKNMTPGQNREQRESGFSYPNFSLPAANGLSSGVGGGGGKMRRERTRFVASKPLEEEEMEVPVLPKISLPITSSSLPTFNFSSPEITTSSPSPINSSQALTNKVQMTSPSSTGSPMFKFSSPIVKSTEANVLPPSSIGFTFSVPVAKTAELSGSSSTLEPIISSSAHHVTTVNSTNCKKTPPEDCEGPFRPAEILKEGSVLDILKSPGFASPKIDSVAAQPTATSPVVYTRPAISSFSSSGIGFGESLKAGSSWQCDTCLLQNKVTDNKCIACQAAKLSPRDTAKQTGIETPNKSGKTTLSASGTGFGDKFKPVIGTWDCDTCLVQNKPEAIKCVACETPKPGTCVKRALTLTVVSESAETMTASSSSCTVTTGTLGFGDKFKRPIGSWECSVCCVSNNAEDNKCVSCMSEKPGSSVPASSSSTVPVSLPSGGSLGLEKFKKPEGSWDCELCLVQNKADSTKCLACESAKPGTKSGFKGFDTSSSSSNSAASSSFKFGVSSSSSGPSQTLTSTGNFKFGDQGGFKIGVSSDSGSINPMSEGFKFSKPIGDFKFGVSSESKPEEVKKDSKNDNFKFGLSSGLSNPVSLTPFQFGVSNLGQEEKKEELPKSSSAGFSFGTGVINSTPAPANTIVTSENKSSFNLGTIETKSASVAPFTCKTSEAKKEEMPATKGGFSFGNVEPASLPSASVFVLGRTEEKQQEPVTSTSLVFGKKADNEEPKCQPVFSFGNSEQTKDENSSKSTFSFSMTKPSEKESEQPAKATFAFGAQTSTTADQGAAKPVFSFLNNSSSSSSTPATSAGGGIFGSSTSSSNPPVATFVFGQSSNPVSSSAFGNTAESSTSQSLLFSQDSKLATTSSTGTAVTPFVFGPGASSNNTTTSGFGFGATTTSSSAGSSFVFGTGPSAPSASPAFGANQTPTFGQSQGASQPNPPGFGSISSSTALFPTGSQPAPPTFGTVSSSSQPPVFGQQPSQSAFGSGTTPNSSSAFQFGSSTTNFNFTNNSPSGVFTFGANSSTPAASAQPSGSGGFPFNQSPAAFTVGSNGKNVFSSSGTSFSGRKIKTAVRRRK", "UniProt Q9Y5A7": "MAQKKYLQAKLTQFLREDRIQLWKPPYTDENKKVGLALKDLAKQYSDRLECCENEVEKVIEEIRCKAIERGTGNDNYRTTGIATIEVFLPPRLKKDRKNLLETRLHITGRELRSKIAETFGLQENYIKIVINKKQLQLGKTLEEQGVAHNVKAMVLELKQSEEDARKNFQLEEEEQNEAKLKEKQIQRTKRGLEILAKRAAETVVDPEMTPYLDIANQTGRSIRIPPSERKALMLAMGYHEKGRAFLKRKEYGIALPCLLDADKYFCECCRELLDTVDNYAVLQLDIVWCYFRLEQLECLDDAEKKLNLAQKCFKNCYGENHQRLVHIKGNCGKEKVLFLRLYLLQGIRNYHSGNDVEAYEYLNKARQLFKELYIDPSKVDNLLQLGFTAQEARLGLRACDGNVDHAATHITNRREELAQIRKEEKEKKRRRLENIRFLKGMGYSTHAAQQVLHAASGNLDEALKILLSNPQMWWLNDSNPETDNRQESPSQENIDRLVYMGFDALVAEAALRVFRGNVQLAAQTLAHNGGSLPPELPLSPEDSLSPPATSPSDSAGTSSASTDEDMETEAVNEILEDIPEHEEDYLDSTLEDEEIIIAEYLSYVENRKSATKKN", "UniProt Q9Y530": "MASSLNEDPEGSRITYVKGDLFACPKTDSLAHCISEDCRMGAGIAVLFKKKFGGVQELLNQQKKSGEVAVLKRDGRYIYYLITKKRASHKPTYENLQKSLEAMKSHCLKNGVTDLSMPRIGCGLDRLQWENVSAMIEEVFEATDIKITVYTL", "UniProt Q8N543": "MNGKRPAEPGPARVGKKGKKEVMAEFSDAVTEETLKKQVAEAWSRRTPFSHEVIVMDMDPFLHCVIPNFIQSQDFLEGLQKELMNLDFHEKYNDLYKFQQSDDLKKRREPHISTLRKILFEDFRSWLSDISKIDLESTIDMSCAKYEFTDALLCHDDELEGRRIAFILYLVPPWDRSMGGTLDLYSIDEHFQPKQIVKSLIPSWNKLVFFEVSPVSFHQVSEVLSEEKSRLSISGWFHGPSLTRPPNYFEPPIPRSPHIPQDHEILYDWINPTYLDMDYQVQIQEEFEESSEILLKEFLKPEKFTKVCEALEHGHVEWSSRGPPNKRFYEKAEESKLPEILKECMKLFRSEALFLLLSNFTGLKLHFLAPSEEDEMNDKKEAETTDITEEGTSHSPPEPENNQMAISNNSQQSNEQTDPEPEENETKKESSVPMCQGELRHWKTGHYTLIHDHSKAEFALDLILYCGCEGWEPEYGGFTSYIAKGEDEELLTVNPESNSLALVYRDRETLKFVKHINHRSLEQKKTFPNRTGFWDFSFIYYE", "UniProt O15381": "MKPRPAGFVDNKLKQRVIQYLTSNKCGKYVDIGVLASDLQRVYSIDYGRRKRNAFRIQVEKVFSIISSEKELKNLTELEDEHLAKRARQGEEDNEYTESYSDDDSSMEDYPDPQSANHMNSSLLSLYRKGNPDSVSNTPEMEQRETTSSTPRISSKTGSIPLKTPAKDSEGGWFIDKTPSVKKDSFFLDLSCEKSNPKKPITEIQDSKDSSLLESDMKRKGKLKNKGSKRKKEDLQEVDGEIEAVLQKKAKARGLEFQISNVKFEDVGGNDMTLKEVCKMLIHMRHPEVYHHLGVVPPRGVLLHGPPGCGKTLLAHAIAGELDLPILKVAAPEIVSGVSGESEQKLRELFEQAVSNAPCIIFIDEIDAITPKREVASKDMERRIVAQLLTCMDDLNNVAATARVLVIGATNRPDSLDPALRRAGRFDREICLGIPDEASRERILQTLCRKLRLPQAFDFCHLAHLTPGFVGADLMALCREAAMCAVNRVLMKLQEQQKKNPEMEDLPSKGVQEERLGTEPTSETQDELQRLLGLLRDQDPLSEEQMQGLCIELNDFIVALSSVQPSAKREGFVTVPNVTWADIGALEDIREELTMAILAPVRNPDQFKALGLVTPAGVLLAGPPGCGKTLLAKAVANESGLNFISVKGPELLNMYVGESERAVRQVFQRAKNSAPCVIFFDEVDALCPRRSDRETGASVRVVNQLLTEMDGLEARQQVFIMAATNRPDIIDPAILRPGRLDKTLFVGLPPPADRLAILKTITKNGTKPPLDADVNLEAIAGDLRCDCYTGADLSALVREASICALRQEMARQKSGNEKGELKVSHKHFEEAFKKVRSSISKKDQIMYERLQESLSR", "UniProt O95989": "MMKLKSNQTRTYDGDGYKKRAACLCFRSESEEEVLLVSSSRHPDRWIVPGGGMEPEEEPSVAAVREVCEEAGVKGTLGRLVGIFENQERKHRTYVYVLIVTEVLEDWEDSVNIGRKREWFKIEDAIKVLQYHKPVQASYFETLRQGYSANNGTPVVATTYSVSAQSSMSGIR", "UniProt Q96E22": "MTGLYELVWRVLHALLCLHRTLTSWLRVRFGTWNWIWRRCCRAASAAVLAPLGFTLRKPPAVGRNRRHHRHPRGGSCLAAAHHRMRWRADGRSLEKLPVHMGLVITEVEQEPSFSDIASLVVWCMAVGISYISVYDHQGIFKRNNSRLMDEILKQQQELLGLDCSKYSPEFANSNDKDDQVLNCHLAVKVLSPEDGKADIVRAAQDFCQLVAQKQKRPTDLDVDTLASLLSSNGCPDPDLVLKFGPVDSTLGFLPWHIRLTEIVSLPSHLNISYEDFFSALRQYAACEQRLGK"},
  "source": "the supplement of paper PMC12067093",
  "about": "“Discovery and optimisation of a covalent ligand for TRIM25 and its application to targeted protein ubiquitination” (Chemical Science, 2025)",
  "note": "Some of the results follow.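 Further: competitive chemoproteomic profiling in live THP-1 cells with an iodoacetamide desthiobiotin (IA-DTB) probe, comparing probe-labelled peptide intensities in compound-treated cells against DMSO-treated controls.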",
  "data": [
    {"compound": "CC1Cc2ccccc2N1C(=O)C1CCCN(C1)C(=O)CCl (mixture of isomers) [TRIM25 ligand 11 (diastereomer mixture)]", "experiment": "probe-labelled cysteine peptide fold change vs DMSO (competition) (log2 fold change); higher = less target engagement (more negative = stronger competition)", "details": "50 µM; THP-1; incubation time: 4 h", "values": [
      {"target": "NUP50_Q9UKX7_151_ACVGNAYHK (UniProt Q9UKX7)", "probe-labelled cysteine peptide fold change": -0.242},
      {"target": "NUBP2_Q9Y5Y2_202_VMGIVENMSGFTCPHCTECTSVFSR (UniProt Q9Y5Y2)", "probe-labelled cysteine peptide fold change": -0.17},
      {"target": "NUP93_Q8N1F7_209_IVNGHLQPNLVDLCASVAELDDK (UniProt Q8N1F7)", "probe-labelled cysteine peptide fold change": 0.227},
      {"target": "ODF2_Q5BJF6_327_DKEVEELLQEIQCEK (UniProt Q5BJF6)", "probe-labelled cysteine peptide fold change": -0.112},
      {"target": "NUP155_O75694_548+551_LHQEDQACATCLILACSTAACDR (UniProt O75694)", "probe-labelled cysteine peptide fold change": 0.0895},
      {"target": "NT5DC1_Q5TFE4_179_ENCGIYFPEIK (UniProt Q5TFE4)", "probe-labelled cysteine peptide fold change": 0.043},
      {"target": "NUP153_P49790_1065_SASVAPFTCK (UniProt P49790)", "probe-labelled cysteine peptide fold change": -0.0235},
      {"target": "NUDC_Q9Y266_188_WTQTLSELDLAVPFCVNFR (UniProt Q9Y266)", "probe-labelled cysteine peptide fold change": 0.00376},
      {"target": "ODF2_Q5BJF6_364_LCMQIK (UniProt Q5BJF6)", "probe-labelled cysteine peptide fold change": 0.0437},
      {"target": "OBSL1_O75147_209_LPDSGVYVCHAR (UniProt O75147)", "probe-labelled cysteine peptide fold change": 0.157},
      {"target": "NUB1_Q9Y5A7_400_ACDGNVDHAATHITNR (UniProt Q9Y5A7)", "probe-labelled cysteine peptide fold change": 0.013},
      {"target": "OARD1_Q9Y530_38_TDSLAHCISEDCR (UniProt Q9Y530)", "probe-labelled cysteine peptide fold change": 0.0731},
      {"target": "OGFOD1_Q8N543_154_YEFTDALLCHDDELEGRR (UniProt Q8N543)", "probe-labelled cysteine peptide fold change": -0.00364},
      {"target": "NVL_O15381_460_LPQAFDFCHLAHLTPGFVGADLMALCR (UniProt O15381)", "probe-labelled cysteine peptide fold change": -0.00784},
      {"target": "NUDT3_O95989_68_EVCEEAGVK (UniProt O95989)", "probe-labelled cysteine peptide fold change": -0.00724},
      {"target": "NUB1_Q9Y5A7_400_ACDGNVDHAATHITNRR (UniProt Q9Y5A7)", "probe-labelled cysteine peptide fold change": -0.274},
      {"target": "NUP133_Q8WUM0_530_AAFLQYCR (UniProt Q8WUM0)", "probe-labelled cysteine peptide fold change": 0.164},
      {"target": "NUP93_Q8N1F7_328_CGDLLAASQVVNR (UniProt Q8N1F7)", "probe-labelled cysteine peptide fold change": 0.221},
      {"target": "NUP155_O75694_356_SVFKPIVQIAVIENSESLDCQLLAVTHAGVR (UniProt O75694)", "probe-labelled cysteine peptide fold change": 0.226},
      {"target": "NUS1_Q96E22_164_QQQELLGLDCSK (UniProt Q96E22)", "probe-labelled cysteine peptide fold change": -0.0354},
      {"target": "NT5DC1_Q5TFE4_119_HFLSDTGMACR (UniProt Q5TFE4)", "probe-labelled cysteine peptide fold change": -0.414},
      {"target": "OAT_P04181_93_YFDFLSSYSAVNQGHCHPK (UniProt P04181)", "probe-labelled cysteine peptide fold change": 0.0781},
      {"target": "OGFOD1_Q8N543_143_IDLESTIDMSCAK (UniProt Q8N543)", "probe-labelled cysteine peptide fold change": 0.0501},
      {"target": "NUP43_Q8NFH3_365_SLSVNTLDVLGPCLVCGTDAEAIYVTR (UniProt Q8NFH3)", "probe-labelled cysteine peptide fold change": 0.0422},
      {"target": "ODF2_Q5BJF6_327_EVEELLQEIQCEK (UniProt Q5BJF6)", "probe-labelled cysteine peptide fold change": 0.125},
      {"target": "NUP153_P49790_874_CLACESAKPGTK (UniProt P49790)", "probe-labelled cysteine peptide fold change": 0.0755},
      {"target": "NUP155_O75694_433_GILLMAASENEDNDILWCVNHDTFPFQK (UniProt O75694)", "probe-labelled cysteine peptide fold change": 0.122},
      {"target": "NUP155_O75694_373_LYFSTCPFR (UniProt O75694)", "probe-labelled cysteine peptide fold change": 0.262},
      {"target": "NUDCD1_Q96RS6_67_LRDDQYTLEHMHAFGMYNYLHCDSWYQDSVYYIDTLGR (UniProt Q96RS6)", "probe-labelled cysteine peptide fold change": -0.0547},
      {"target": "NUF2_Q9BZD4_377_TVIEDCNK (UniProt Q9BZD4)", "probe-labelled cysteine peptide fold change": -0.0213},
      {"target": "OGDH_Q02218_956_YPNAELAWCQEEHK (UniProt Q02218)", "probe-labelled cysteine peptide fold change": -0.162},
      {"target": "NUP98_P52948_1027_ADTSQEICSPR (UniProt P52948)", "probe-labelled cysteine peptide fold change": 0.345},
      {"target": "NVL_O15381_626_ALGLVTPAGVLLAGPPGCGK (UniProt O15381)", "probe-labelled cysteine peptide fold change": 0.092},
      {"target": "NUP155_O75694_667_HNGICIYFSR (UniProt O75694)", "probe-labelled cysteine peptide fold change": 0.207},
      {"target": "NUP210_Q8TEM1_962_GVAMVHPLLPGSSTIMIHDLCLVFPAPAK (UniProt Q8TEM1)", "probe-labelled cysteine peptide fold change": 0.0989},
      {"target": "NUMB_P49757_176_ECGVTATFDASR (UniProt P49757)", "probe-labelled cysteine peptide fold change": -0.0517}
    ]}
  ]
}
